Test results from patent US9290459B1, “Substituted bicyclic dihydropyrimidinones and their use as inhibitors of neutrophil elastase activity” (Boehringer Ingelheim International GmbH, priority 2013, dated 2016).

Test system: Caco-2 cells
Test: Drug transport across human Caco-2 cells
Format: in vitro ADME
Conditions: Caco-2 monolayers, apical-to-basal, pH 7.2, 37° C.

## C[C@H](O)CNC(=O)N1C(=O)N(c2cccc(C(F)(F)F)c2)C2=C(C(=O)CC2)C1c1ccc(C#N)cc1 (stereo partly shown) [Example 41.1]
  PEAB: 0.00000816 cm/s and 0.0000188 cm/s

Some entries of the source have several records that differ or are many. They are shown here; other results are not. An entry can have further records. The values listed for one entry differ, and nothing given here explains why; they may come from other doses, times, organisms or constructs than stated.
